# No constants are given. Whether binding was seen depends on the method and setting. Some binding calls cover weakened binding; strength is not graded here.
# Amino acid sequences for entries named in this document (tags omitted). Residues count along the entry.
# UniProt P49790, residues 874-1475: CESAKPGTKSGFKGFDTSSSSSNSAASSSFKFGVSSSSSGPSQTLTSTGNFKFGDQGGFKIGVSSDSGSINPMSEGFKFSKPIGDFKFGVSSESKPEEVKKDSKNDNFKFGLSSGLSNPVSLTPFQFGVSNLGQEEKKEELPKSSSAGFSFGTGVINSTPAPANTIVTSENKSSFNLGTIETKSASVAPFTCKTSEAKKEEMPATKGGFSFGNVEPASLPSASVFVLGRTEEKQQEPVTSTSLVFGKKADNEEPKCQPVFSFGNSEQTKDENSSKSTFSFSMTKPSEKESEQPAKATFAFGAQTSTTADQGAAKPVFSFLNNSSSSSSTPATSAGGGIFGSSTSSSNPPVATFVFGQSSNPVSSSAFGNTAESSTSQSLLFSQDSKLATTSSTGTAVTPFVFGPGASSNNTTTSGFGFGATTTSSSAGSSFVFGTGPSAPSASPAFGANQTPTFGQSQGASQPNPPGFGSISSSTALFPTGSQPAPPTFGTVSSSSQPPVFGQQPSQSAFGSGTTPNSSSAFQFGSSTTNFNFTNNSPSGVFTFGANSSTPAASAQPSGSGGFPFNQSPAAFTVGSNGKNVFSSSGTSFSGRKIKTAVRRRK
# UniProt Q92973: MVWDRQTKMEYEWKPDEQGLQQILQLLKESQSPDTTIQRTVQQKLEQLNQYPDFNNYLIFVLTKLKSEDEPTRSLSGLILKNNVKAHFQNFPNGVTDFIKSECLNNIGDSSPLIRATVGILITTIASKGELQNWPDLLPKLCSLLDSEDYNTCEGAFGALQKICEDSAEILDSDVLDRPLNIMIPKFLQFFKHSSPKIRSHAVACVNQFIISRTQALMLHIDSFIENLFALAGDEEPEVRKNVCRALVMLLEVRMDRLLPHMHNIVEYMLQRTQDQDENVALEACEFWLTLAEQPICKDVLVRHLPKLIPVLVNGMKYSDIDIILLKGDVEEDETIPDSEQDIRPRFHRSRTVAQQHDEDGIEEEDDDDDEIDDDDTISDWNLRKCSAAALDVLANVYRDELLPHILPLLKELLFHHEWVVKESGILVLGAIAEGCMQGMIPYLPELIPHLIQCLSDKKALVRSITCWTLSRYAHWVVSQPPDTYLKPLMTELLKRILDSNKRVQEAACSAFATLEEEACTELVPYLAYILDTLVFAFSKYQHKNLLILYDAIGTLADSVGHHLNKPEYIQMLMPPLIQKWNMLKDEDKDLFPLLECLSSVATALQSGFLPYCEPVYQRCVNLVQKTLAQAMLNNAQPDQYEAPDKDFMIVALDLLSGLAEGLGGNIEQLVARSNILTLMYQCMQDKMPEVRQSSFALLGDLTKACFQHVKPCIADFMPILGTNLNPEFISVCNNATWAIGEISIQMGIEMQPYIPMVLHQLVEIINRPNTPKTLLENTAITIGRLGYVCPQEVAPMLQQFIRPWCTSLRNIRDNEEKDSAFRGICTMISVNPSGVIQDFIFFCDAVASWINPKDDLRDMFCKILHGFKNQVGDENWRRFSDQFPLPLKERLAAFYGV
# Target: Nup153FG (the FG domain of Nup153 comprising amino acids 874-1475) (UniProt P49790)
# Assay: fluorescence fluctuation spectroscopy (photon counting histograms); all in solution in 500 µl PBS with 2 mM DTT, room temperature; 50 nM impβ-YFP or 100 nM TRN1-GFP, 0.5 µM Nup153FG, with or without 2 µM RanQ69L•GTP; read at once or after 30 min; both purified
substance,measurement,value
transportin-1 with a GFP tag (TRN1-GFP) (from UniProt Q92973 1-898),binding,binds

# Reference: paper PMC4375889
